# Measured values as given in PubChem BioAssay.
# The other results are listed elsewhere or left out. Further columns of the screen follow, without active or inactive calls. For some assays here: Compounds called inactive in the main read-out are mostly missing here.
# Experiment: enhancers of SMN2 over SMN1 splicing, cell-based, SMN2/SMN1 luciferase reporters (AID 1598)
# Conditions: SMN2 vs SMN1 luciferase splicing reporter cells, at 10 µM; SMN1 luciferase ratio: measured here: SMN1 luciferase reporter average; SMN2 luciferase ratio: measured here: SMN2 luciferase reporter average, stronger effect = higher value
Structure (SMILES),SMN2 luciferase ratio,SMN1 luciferase ratio
CC(=O)OCC1=C(C(=O)O)N2C(=O)[C@@H](NC(=O)Cc3cccs3)[C@H]2SC1,0.93,0.88
C[C@]12CCC3c4ccc(O)cc4CCC3C1CC[C@@H]2OC(=O)CCC1CCCC1 (some centres undefined),0.94,0.93
N[C@@H](Cc1c[nH]c2ccccc12)C(=O)O,0.97,0.85
CCN1CCCC1CNC(=O)c1cc(S(N)(=O)=O)ccc1OC (centres undefined),0.88,0.82
NCCCCCC(=O)O,0.78,0.78
COc1ccc(C2C(=O)c3ccccc3C2=O)cc1,1.94,1.68
NC(Cc1ccc(Cl)cc1)C(=O)O (centres undefined),0.91,0.97
COc1ccc(/C=C/c2cc(O)cc(O[C@@H]3O[C@H](CO)[C@@H](O)[C@H](O)[C@H]3O)c2)cc1O,2.97,2.39
COC(=O)[C@H]1[C@H]2C[C@H]3c4[nH]c5cc(OC)ccc5c4CCN3C[C@H]2C[C@@H](OC(=O)c2cc(OC)c(OC)c(OC)c2)[C@@H]1OC,0.95,0.87
NC(=O)NC(=O)Cc1ccccc1,1.01,1.06

# Experiment: protection against mutant huntingtin cytotoxicity, PC12 cells, LDH release (AID 1610)
# Conditions: PC12 mutant huntingtin toxicity, final LDH at 4 uM, stronger effect = lower value
row,Structure (SMILES),normalised LDH release
1,CCN1CCCC(OC(=O)C(c2ccccc2)c2ccccc2)C1 (centres undefined),0.912
2,CC(=O)Oc1ccccc1C(=O)O,0.684
3,CC(=O)OCC(=O)[C@H]1CCC2C3CCC4=CC(=O)CC[C@]4(C)C3CC[C@@]21C (some centres undefined),0.923
4,C#C[C@]1(O)CCC2C3CCc4cc(O)ccc4C3CC[C@@]21C (some centres undefined),0.798
5,NC(Cc1cc(I)c(Oc2ccc(O)c(I)c2)c(I)c1)C(=O)O (centres undefined),1.09
6,CCN(CC)CCNC(=O)c1cc(S(C)(=O)=O)ccc1OC,0.984
7,C[C@@H]1CC2C3C[C@H](F)C4=CC(=O)C=CC4(C)C3(F)[C@@H](O)CC2(C)C1C(=O)COC(=O)C(C)(C)C (some centres undefined),0.709
8,CC1(C)S[C@@H]2[C@H](NC(=O)[C@H](NC(=O)N3CCNC3=O)c3ccccc3)C(=O)N2C1C(=O)O (some centres undefined),1.1
9,O=C(O)P(=O)(O)O,1.89
10,C#C[C@]1(O)CCC2C3CCC4=C(CCC(=O)C4)C3CC[C@@]21C (some centres undefined),1
11,CCC(Cc1c(I)cc(I)c(N)c1I)C(=O)O (centres undefined),1.22
12,C1CCN2C[C@H]3C[C@H](CN4CCCC[C@@H]34)[C@H]2C1,0.929
13,COC1=CC(C)[C@@H]2C[C@H]3OC(=O)C[C@H]4C(C)=C(OC)C(=O)C([C@@]34C)[C@@]2(C)C1=O (some centres undefined),1.09
14,Nc1nc(N)c2nc(-c3ccccc3)c(N)nc2n1,0.829
15,O=c1cc[nH]c(=S)[nH]1,0.949
16,CN1C(=O)CC[C@H]1c1cccnc1,0.462
17,Nc1ccc(C(=O)NCC(=O)O)cc1,0.798
18,CC(=O)[C@@]1(O)CCC2C3C[C@H](C)C4=CC(=O)C=CC4(C)[C@@]3(F)[C@@H](O)C[C@@]21C (some centres undefined),0.611
19,c1ccc(CC2=NCCN2)cc1,0.951
20,Nc1ccc(C(=O)O)cc1,0.372

# Part of the list above, set out differently:
row	Structure (SMILES)	normalised LDH release
4	C#C[C@]1(O)CCC2C3CCc4cc(O)ccc4C3CC[C@@]21C (some centres undefined)	0.798
9	O=C(O)P(=O)(O)O	1.89
10	C#C[C@]1(O)CCC2C3CCC4=C(CCC(=O)C4)C3CC[C@@]21C (some centres undefined)	1

# Further compounds follow.

row,Structure (SMILES),normalised LDH release
1,C#C[C@]1(O)CCC2C3CCC4=CC(=O)CC[C@@H]4C3CC[C@@]21C (some centres undefined),0.831
2,CN[C@H](CC(=O)O)C(=O)O,0.831
3,Clc1ccc2c(c1)C(N1CCNCC1)=Nc1ccccc1O2,0.421
4,C=C[C@@]1(C)CC(=O)[C@@]2(O)[C@](C)(O1)[C@@H](OC(C)=O)[C@@H](O)C1C(C)(C)CC[C@H](O)[C@@]12C (some centres undefined),0.824
5,CN(C)CCOC(=O)C(c1ccccc1)C1(O)CCCC1 (centres undefined),0.732
6,CN(C)C(=O)C(CCN1CCC(O)(c2ccc(Cl)cc2)CC1)(c1ccccc1)c1ccccc1,1.2
7,CCOc1ccc(NC(C)=O)cc1,1.35
8,CCCNC(C)C(=O)Nc1ccccc1C (centres undefined),0.842
9,C[C@@H]1CC2C3CCC4=CC(=O)C=C[C@]4(C)[C@@]3(F)[C@@H](O)C[C@]2(C)[C@@]1(O)C(=O)CO (some centres undefined),0.476
10,CC(=O)OCC1=C(C(=O)O)N2C(=O)[C@@H](NC(=O)Cc3cccs3)[C@H]2SC1,0.892
11,C[C@]12CCC3c4ccc(O)cc4CCC3C1CC[C@@H]2OC(=O)CCC1CCCC1 (some centres undefined),0.972
12,N[C@@H](Cc1c[nH]c2ccccc12)C(=O)O,0.782
13,CCN1CCCC1CNC(=O)c1cc(S(N)(=O)=O)ccc1OC (centres undefined),0.705
14,NCCCCCC(=O)O,0.768
15,COc1ccc(C2C(=O)c3ccccc3C2=O)cc1,0.691
16,NC(Cc1ccc(Cl)cc1)C(=O)O (centres undefined),0.45
17,COc1ccc(/C=C/c2cc(O)cc(O[C@@H]3O[C@H](CO)[C@@H](O)[C@H](O)[C@H]3O)c2)cc1O,1.06
18,COC(=O)[C@H]1[C@H]2C[C@H]3c4[nH]c5cc(OC)ccc5c4CCN3C[C@H]2C[C@@H](OC(=O)c2cc(OC)c(OC)c(OC)c2)[C@@H]1OC,0.577
19,NC(=O)NC(=O)Cc1ccccc1,0.589
